Experimental data from the supplement of paper PMC5949888.
Most values lie at the floor of the assay. Slopes are relative: functional sequences can read slightly below zero.

Tested on: Saccharomyces cerevisiae PS128 hsf1 delta, HSF1(1-493) fusion
Assay: growth estimate (transactivation domain function in HSF1 fusion, heat-shock survival) (a.u. (slope of normalised read count over time)); higher = stronger growth at 37°C, i.e. more transactivation activity
Conditions: library: random library
Method: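 Random 60-nt DNA library encoding peptides of up to 20 aa, fused to the C-terminus of yeast HSF1 residues 1-493 (C-terminal TAD deleted) and expressed from the native HSF1 promoter on a CEN plasmid in hsf1-deleted S. cerevisiae PS128. Cells were selected at 37°C on -trp 5-FOA plates for 0, 2, 4, 6 and 8 days and amplicons were sequenced. Growth estimate is the slope of a robust linear fit of total-sum-normalised read counts (normalised to the first time point) over time, using at least 2 replicates. Sequences are classed functional (TAD activity) above a threshold of -0.13, set from stop-codon control sequences.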

Row | Substance | growth estimate
1 | SPNVRTTIDSQCIQGGTAKQ | < -0.25
2 | TAVVQSLIGERLAVLGQSIP | < -0.25
3 | AVQVLQLEWIVAVREVPNGF | -0.246
4 | FVLRYSSTERDGITA | < -0.25
5 | TPP | < -0.25
6 | ERYDAI | < -0.25
7 | LRLVVVL | < -0.25
8 | GRANCMTFAGWTSHA | < -0.25
9 | SRSRLWKGYVVRSHVVSL | < -0.25
10 | ILFLFFAHEFGAAGHCASVY | < -0.25
11 | RCQRSCGDHGYEFNSGWVQI | < -0.25
12 | LRGWALTATVLSAAGQGREG | < -0.25
13 | PNGYRHKA | -0.127
14 | DAVAYSKTRVQFNSSRVPEL | < -0.25
15 | CLIT | < -0.25
16 | QGLPSQP | < -0.25
17 | HHTSIASELAAYFSCLLRRQ | < -0.25
18 | RSLKSVTRVHKTS | < -0.25
19 | GEYIVAIRQIFPVGRVTMSR | < -0.25
20 | NSTSRDFGCTAGLDGMFHES | < -0.25
21 | KALKLLHSLGL | < -0.25
22 | RLLPIQNKRFLPNLRVPCSV | < -0.25
23 | IDRYVHELQRRPIFPSSRHS | < -0.25
24 | TKIVSFIGGLPTKAYPSRYG | < -0.25

Row | Substance | growth estimate
25 | LQNLSIRFRSRGTVFARLRP | < -0.25
26 | TVAGSELWPEPRNCNK | < -0.25
27 | LCRCGNRAIELRDMFDQNVQ | < -0.25
28 | LPMDQREAHVV | < -0.25
29 | SAPRLGGTGNVFSNL | < -0.25
30 | FRGKTQRLARGHISYMMRYH | < -0.25
31 | DRDLIDLTGRGI | < -0.25
32 | DVVMTQRT | 0.0423
33 | IYTGNGTPPRGGPVYLRHGL | < -0.25
34 | QLAPPITVPCCGLPCCVFFD | < -0.25
35 | SRDTRLLLWAFFETRLGIPG | < -0.25
36 | KIDMPPRIFGLIGGDPRLSD | < -0.25
37 | YLQMH | < -0.25
38 | RRTCGLYTITHHKILALSRR | < -0.25
39 | LRFS | < -0.25
40 | ERAHRDRYFNSAVNSVTHRM | < -0.25
41 | RFVTRSM | < -0.25
42 | CFVISVKKYRALFAYVTLLA | < -0.25
43 | HSTNQSDDQEKIVPCSARDW | < -0.253
44 | NMRYMLEIQFAGVLAVVREA | < -0.25
45 | IFPEARGM | < -0.25
46 | NNYRYAE | < -0.25
47 | YAKCY | < -0.25
48 | GPSIRVRCHRDKYYIGRTVK | < -0.25

Row | Substance | growth estimate
49 | PGVPGNPRLSCVGRYSRSG | < -0.25
50 | SFTGRE | < -0.25
51 | KYPGSMLPSS | < -0.25
52 | LFYTDIPNTLGTLGRSYVES | < -0.25
53 | STLGRGKL | < -0.25
54 | PSWKHGPYNQYM | < -0.25
55 | KKATMVTREETQHYGCS | < -0.25
56 | GFVHTKGGVALSVLPGS | < -0.25
57 | SKRLDCWTGNIQMP | < -0.25
58 | LKVLVRLDGR | < -0.25
59 | FEANLRVLSAPGGPGEMLDP | < -0.25
60 | PSIMGMASRFTTS | < -0.25
61 | EETHLRASGDLPAVTVIWLY | < -0.25
62 | GLLNVMRSGPWVGDTGLTTG | < -0.25
63 | GAYARLCTYSVVMAQLLTAG | < -0.25
64 | RTHGDGNVCTKTHATTVQEL | < -0.25
65 | NSWLSPPFASCIKTGNLLEI | < -0.25
66 | TASDKLSGFTPAMYSRGGG | < -0.25
67 | AAVWGNGTGGTRVWLTPAFR | < -0.25
68 | VRDGLSVLPR | < -0.25
69 | RTTRRRLGRQ | < -0.25
70 | TCCSASGLFVVITGSNGPPH | < -0.25
71 | SKYSRFRMWDRVLSLLTYD | < -0.25
72 | SVWRGLSSRRGQCRHLSRIY | < -0.25

Row | Substance | growth estimate
73 | DVNLR | < -0.25
74 | LESCINHTDPLLLCTAPVVD | < -0.25
75 | PEGT | < -0.25
76 | ISRVRGVLLLYWTYGLKSLP | < -0.25
77 | SSYVTAWIFVSPLQVWGQRH | < -0.25
78 | LMTLRVTVKPGSLPQWVEVS | < -0.25
79 | SYLLSADPSKYAS | < -0.25
80 | HTLFALGKARTVF | < -0.25
81 | EGIRW | < -0.25
82 | STMGQHSSLDDKTEPRESRM | < -0.25
83 | EHDTSTFSTLTSIHGMVVNW | < -0.25
84 | IRRTVSLGGGCTSRN | < -0.25
85 | AVE | < -0.25
86 | LGTIKPTGTG | < -0.25
87 | VRTLS | < -0.25
88 | GLRYLWISSSSIGDPLRGFV | < -0.25
89 | LIRREIYQCEY | < -0.25
90 | KIDKSPLCFPTLGQVRLYRC | < -0.25
91 | GLLCERSML | < -0.25
92 | VSQSYCGSNRLYSQVHASAS | < -0.25
93 | SRQSKRFQANRLGFWRGRSY | < -0.25
94 | RSNNAMNIVGTVPSSMRAAD | -0.241
95 | TDLRWTCIRRCGQKNPVDCD | < -0.25
96 | SRCEGHVHVSSPI | < -0.25

Row | Substance | growth estimate
97 | RYTRVGYSWGLLRGSLRCHI | < -0.25
98 | SRHTILPSALSSTSTAHLAQ | < -0.25
99 | PVILRKCGFGSISIGFPCGQ | < -0.25
100 | VGGGVRNPLVDYKASRFRTC | < -0.25
101 | AAVGDKGGGSLGAARDEGTP | < -0.25
102 | AKPLGAALGTCTPGSRVAPS | < -0.25
103 | LFSR | < -0.25
104 | GVLLAGVCDID | < -0.25
105 | YTVGQASP | < -0.25
106 | GCHWGCTGRKV | < -0.25
107 | ELDASARGASQLVKGVPNAP | < -0.25
108 | FLHPVGTR | < -0.25
109 | RGGLTHAG | < -0.25
110 | VNRSGRNVEAHESIKLDLNF | < -0.25
111 | HRHGLCAHKPSTAF | < -0.25
112 | ICTSVKVLLGVHWLVRKQGA | < -0.25
113 | IQGPRSH | < -0.25
114 | VRLAYGYNFWPTKAVVFYSN | < -0.25
115 | RDLKYSSTRKCRTHMHLLIP | < -0.25
116 | GFNDG | < -0.25
117 | RICGG | < -0.25
118 | GWLIEGDPRARLLFVTMGHP | < -0.25
119 | TRCKILRGTQYCHCGCVYME | < -0.25
120 | AKPDYVL | < -0.25

Taken from above (4 entries):
Row | Substance | growth estimate
104 | GVLLAGVCDID | < -0.25
105 | YTVGQASP | < -0.25
106 | GCHWGCTGRKV | < -0.25
107 | ELDASARGASQLVKGVPNAP | < -0.25

4 entries from above, set out differently:
GCHWGCTGRKV
  growth estimate = < -0.25
ELDASARGASQLVKGVPNAP
  growth estimate = < -0.25
ICTSVKVLLGVHWLVRKQGA
  growth estimate = < -0.25
IQGPRSH
  growth estimate = < -0.25

Additional records

Row | Substance | growth estimate
121 | QRAACPSIETFRAEPGTPRS | < -0.25
122 | GTWAISMA | < -0.25
123 | SGDLRSNV | < -0.25
124 | DRPASTG | < -0.25
125 | CNRIWLERVTKYVCS | < -0.25
126 | SAKRVF | < -0.25
127 | FSQRSATLRSNRPRKWGLTC | < -0.25
128 | NVGLYVK | < -0.25
129 | RFRLIYKRPKLRQYLGRPSM | < -0.25
130 | ARSFGHVSAY | < -0.25
131 | LLGGVWVLSAQVRLIELSAA | < -0.25
132 | NPAHGRRLQQS | < -0.25
133 | FQKISLIAVRALAAVSLSTL | < -0.25
134 | WDRPAESASVRCHLIRDLLL | < -0.25
135 | RVVLERGCTIRKYPATAWRG | < -0.25
136 | LAIRDFKHGFYGADRS | < -0.25
137 | WPGD | < -0.25
138 | NQDAGKSALSSPGKCSRPKG | -0.246
139 | GSWAGTVGNENDKKTR | < -0.25
140 | AVNARTLFCTAIPAGWSR | -0.245
141 | TASRE | < -0.25
142 | CLCVVT | < -0.25
143 | LVSRRHCQIPDLWASGACGG | < -0.25
144 | DPPAAL | < -0.25

Some of the entries so far, with each value named.
LAIRDFKHGFYGADRS
  growth estimate: < -0.25
WPGD
  growth estimate: < -0.25
NQDAGKSALSSPGKCSRPKG
  growth estimate: -0.246
GSWAGTVGNENDKKTR
  growth estimate: < -0.25

Next results follow:

Row | Substance | growth estimate
145 | NRTSLGHKGVSTLLNAARFA | < -0.25
146 | STRAIFK | < -0.25
147 | SVFRQRSPW | < -0.25
148 | NVRSKVRTSPRPY | < -0.25
149 | GPDLLPTRF | < -0.25
150 | VTLPFLCAVDILNVYPLVRL | < -0.25
151 | GEQLDLRSNRGGTGIKY | < -0.25
152 | NEKCQGITRRRPT | < -0.25
153 | DRAQEQ | < -0.25
154 | GVLFSSLSLTMVPLPACDRS | < -0.25
155 | TRVD | < -0.25
156 | QSQSNAWCPLTVQKEKGDS | < -0.25
157 | LGEVDQEHRDDSTNYLPECT | < -0.25
158 | RDERELPVTVTQ | < -0.25
159 | VGGVKANNGKYYRETPYQIP | < -0.25
160 | YQNTNREENRA | < -0.25
161 | HEGWGYNFILDPRYDRGVST | -0.246
162 | PVPRRAAPRKSVNWCRRGLV | < -0.25
163 | KEGSSGSRSWLPLLLIITNP | < -0.25
164 | LCLEKWSPIRVMAYRRPEL | < -0.25
165 | LCPHSPFVANHGM | < -0.25
166 | ALEICMNKHTGY | < -0.25
167 | VIHIAPRIGT | < -0.25
168 | MLFVCSG | < -0.25

Row | Substance | growth estimate
169 | DVAV | < -0.25
170 | GVHCWLPLQSCVWQ | < -0.25
171 | GDNCRASCDLRTLLPALILL | < -0.25
172 | IKKCKGIWTTSLVAVLQRSR | < -0.25
173 | NQLRTANQYGGCVSMGNRAW | < -0.25
174 | FHFTQGGFVRVFLASPLPAF | < -0.25
175 | HRYICGIQGIL | < -0.25
176 | SLQYDIIRPILKGSRNYNVA | < -0.25
177 | GNYKQYALPVK | < -0.25
178 | QVIYVVTSFALSRIAACYLP | < -0.25
179 | TGHGY | -0.226
180 | FQGGLTVCH | -0.231
181 | AGYRE | < -0.25
182 | NHDTH | < -0.25
183 | TTAVKAVRP | < -0.25
184 | LQLGKGSSRPNGLSRLLRGK | < -0.25
185 | YPGNGYVPVWYRAPRANKTL | < -0.25
186 | TYESYYQDPAHTCIVCDPLV | -0.102
187 | RAGAATRWIDVRRRTFV | < -0.25
188 | SVNVSG | < -0.25
189 | RRNQLEQHPGSKSQPG | < -0.25
190 | PFLSAFRH | < -0.25
191 | LDHHSLERRITVAPAPPRPP | < -0.25
